Reference: PubChem BioAssay AID1259308 (NCATS, 2017)

Assay: 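Knock-downs that increase output of a recombinant reporter protein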 (primary screen)
Cells: human HEK293 embryonic kidney cells stably expressing firefly luciferase (HEK-CMV-Luc2-Hygro)
Knock-down reagent: single siRNA against human genes, 0.8 pmol siRNA per well
Time to read-out: 72 h
Measured: 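Reporter luminescence and viable-cell signal on separate replicate plates, given as percent of non-targeting control and median/MAD z-scores, plus per-cell luciferase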
Direction: total luciferase, z-score and total luciferase, % of control: higher = more reporter protein produced; luciferase per cell, z-score: higher = more reporter output per viable cell; viable cells, % of control: higher = more viable cells
Rule for the call: 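Active when the median/MAD z-score for overall luciferase is greater than 3; a gene was taken forward for validation with new siRNAs if at least two of its three siRNAs passed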
Calls: active = raised luciferase; inactive = no rise
Here is a random part of about 59,000 deposited reagents. Over the whole deposit, about 1,510 (2.6%) got an active call. 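Calls use total luciferase alone and ignore viability, so some active siRNAs may act by altering cell number.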 Unmarked entries are inactive.

target gene	PubChem SID	total luciferase, z-score	total luciferase, % of control	luciferase per cell, z-score	viable cells, % of control
CEP350 (centrosomal protein 350)	SID160723271	0.179	85.4	-0.175	100
CEP350 (centrosomal protein 350)	SID160723272	-0.702	67.9	-0.0784	77.5
CEP350 (centrosomal protein 350)	SID160723273	-0.295	76	-0.0569	86.2
PRAMEF10 (PRAME family member 10)	SID160764686	0.309	88	0.118	95.4
PRAMEF10 (PRAME family member 10)	SID160764687	-0.251	76.9	0.736	70.8
PRAMEF10 (PRAME family member 10)	SID160764688	-0.188	78.1	-0.588	102
NMB (neuromedin B)	SID160778098	-0.637	69.2	-0.46	87.3
NMB (neuromedin B)	SID160778099	-0.79	66.2	-0.71	89.1
NMB (neuromedin B)	SID160778100	1.97	121	2.41	71.6
TMEM248 (transmembrane protein 248)	SID160742860	-1.07	60.6	-1.27	94.7
TMEM248 (transmembrane protein 248)	SID160742863	0.0455	82.8	0.637	78.2
TMEM248 (transmembrane protein 248)	SID160742864	0.182	85.5	-0.152	99.5
MEDAG (mesenteric estrogen dependent adipogenesis)	SID160735127	-0.0796	80.3	-0.165	93.7
MEDAG (mesenteric estrogen dependent adipogenesis)	SID160752980	0.897	99.7	1.31	78.9
MEDAG (mesenteric estrogen dependent adipogenesis)	SID160752981	-0.306	75.8	-0.378	93.6
CSDC2 (cold shock domain containing C2)	SID160738620	0.585	93.5	0.493	91.8
CSDC2 (cold shock domain containing C2)	SID160738621	-1.53	51.4	-0.744	69.9
CSDC2 (cold shock domain containing C2)	SID160738622	-1.22	57.6	-0.915	82
MAP3K14 (mitogen-activated protein kinase kinase kinase 14)	SID160721278	0.566	93.1	0.289	96.5
MAP3K14 (mitogen-activated protein kinase kinase kinase 14)	SID160721279	-0.256	76.8	0.979	66.3
MAP3K14 (mitogen-activated protein kinase kinase kinase 14)	SID160721280	-0.182	78.3	-0.669	104
C2orf78 (chromosome 2 open reading frame 78)	SID160766046	0.226	86.4	0.969	74.8
C2orf78 (chromosome 2 open reading frame 78)	SID160766048	2.75	137	2.52	78.7
C2orf78 (chromosome 2 open reading frame 78)	SID160766049	0.487	91.6	0.254	95.7
DCTN6 (dynactin subunit 6)	SID160729015	-0.0971	80	-0.092	91.5
DCTN6 (dynactin subunit 6)	SID160729016	-0.998	62	-0.665	82.6
DCTN6 (dynactin subunit 6)	SID160730467	-1.34	55.2	0.0406	61.1
ZNF502 (zinc finger protein 502)	SID160732139	-0.0445	81	-0.629	107
ZNF502 (zinc finger protein 502)	SID160753962	-0.0733	80.4	0.0983	87.6
ZNF502 (zinc finger protein 502)	SID160753964	-0.574	70.5	-0.497	89.8
HSPA14 (heat shock protein family A (Hsp70) member 14)	SID160740264	0.516	92.1	0.136	99.4
HSPA14 (heat shock protein family A (Hsp70) member 14)	SID160740265	-0.133	79.2	0.223	83.5
HSPA14 (heat shock protein family A (Hsp70) member 14)	SID160740267	-0.351	74.9	-0.356	91.9
TNFSF12 (TNF superfamily member 12)	SID160720719	-0.938	63.2	-1.81	114
TNFSF12 (TNF superfamily member 12)	SID160720720	0.0852	83.6	-0.103	96
TNFSF12 (TNF superfamily member 12)	SID160720721	-0.0391	81.1	0.0999	88.3
EXOSC3 (exosome component 3)	SID160739843	0.785	97.5	0.0222	108
EXOSC3 (exosome component 3)	SID160739845	-0.428	73.4	-0.593	95.9
EXOSC3 (exosome component 3)	SID160739846	-0.478	72.4	-1.09	108

2 consecutive records already listed:
target gene	PubChem SID	total luciferase, z-score	total luciferase, % of control	luciferase per cell, z-score	viable cells, % of control
ZNF502 (zinc finger protein 502)	SID160732139	-0.0445	81	-0.629	107
ZNF502 (zinc finger protein 502)	SID160753962	-0.0733	80.4	0.0983	87.6
